Measurements as given in patent publication US12558400B2, “Method of treatment of soft tissue sarcoma with a peptide comrpising a PCNA interacting motif” (THERAPIM PTY LTD, priority 2020, dated 2026).
Where “and” joins values, the source holds several entries; their conditions need not be identical. Equal entries are not always repeated. Entries after “also recorded” stand apart in the source; their conditions may differ. At least one peptide structure holds a part that was inferred or is arguable (an end, a ring closure or a residue). Where no end group is shown, it is not given here.

Legend:
Assay type in all cases: in vivo, human
[1] = test system: Undifferentiated pleomorphic Sarcoma; assay: Long-term follow-up study ATX101-02, case 5
[2] = test system: Pancreatic adenocarcinoma; assay: Long-term follow-up study ATX101-02, case 1; details: patient #1, 20 mg/m^2 weekly IV
[3] = test system: Ovarian granulosa cell tumor; assay: Long-term follow-up study ATX101-02, case 9; details: patient #9, 60 mg/m^2 weekly IV
Cervical carcinoma = assay: Long-term follow-up study ATX101-02, case 8; details: patient #8, 60 mg/m^2 weekly IV
[4] = test system: Cervical squamous cell carcinoma; assay: Long-term follow-up study ATX101-02, case 4; details: patient #4, 20 mg/m^2 weekly IV
Uterine Leiomyosarcoma = assay: Long-term follow-up study ATX101-02, case 2
[5] = test system: Urethral squamous cell carcinoma; assay: Long-term follow-up study ATX101-02, case 3; details: patient #3, 20 mg/m^2 weekly IV
advanced solid tumors = assay: Phase I preliminary efficacy (anti-tumor activity), tumor assessment per RECIST V1.1
[6] = test system: Non-small cell lung cancer; assay: Long-term follow-up study ATX101-02, cases 6 and 7; details: for Duration of treatment (months): progressive at entry
[7] = patient #6 (lung adenocarcinoma), 45 mg/m^2 weekly IV
[8] = patient #7, 45 mg/m^2 weekly IV

Ac-MDRWLVKWKKKRKIRRRRRRRRRRR (N-terminus assumed) [ATX-101]
Outcome at end of treatment ([1]; patient #5, 30 mg/m^2 weekly IV): Progressive disease
Duration of treatment (months) ([1]; patient #5, 30 mg/m^2 weekly IV, progressive at entry): 4.1 months
tumor status after first 6 weeks of treatment ([1]; patient #5, 6 weekly IV doses of 30 mg/m^2): no signs of disease progression
Outcome at end of treatment [2]: absence of progressive disease; also recorded: Stable disease
tumor status after first 6 weeks of treatment [2]: remained stable
Duration of treatment (months) ([2]; stable at entry): 7.2 months
disease status during treatment and at discontinuation [3]: without signs of disease progression
Duration of treatment (months) ([3]; progressive at entry): 5 months and 4.8 months
tumor status after first 6 weeks of treatment (Cervical carcinoma): has been stabilized
Duration of treatment (months) (Cervical carcinoma; progressive at entry): 2.1 months
Outcome at end of treatment (Cervical carcinoma; clinical assessment, no tumor imaging): clinical disease progression; also recorded: Progressive disease
Outcome at end of treatment [4]: progressed; also recorded: Progressive disease
tumor status after first 6 weeks of treatment [4]: became stable
Duration of treatment (months) ([4]; progressive at entry): 4.2 months
Outcome at end of treatment (Uterine Leiomyosarcoma; patient #2, 20 mg/m^2 weekly IV): remained stable with no signs of tumor growth; also recorded: Stable disease
Duration of treatment (months) (Uterine Leiomyosarcoma; patient #2, 20 mg/m^2 weekly IV, progressive at entry): 15.6 months
tumor status after first 6 weeks of treatment (Uterine Leiomyosarcoma; patient #2, 6 weekly infusions of 20 mg/m^2, RECIST): became stable
tumor growth after interruption of treatment (Uterine Leiomyosarcoma; patient #2, two years after ATX-101 treatment start): no signs of tumor growth
Outcome at end of treatment [5]: became progressive; also recorded: Progressive disease
tumor status after first 6 weeks of treatment [5]: no signs of disease progression
Duration of treatment (months) ([5]; progressive at entry): 6.9 months
median duration of treatment (advanced solid tumors; 9 patients treated longer than 6 weeks (ATX101-02), [range]): 4.2 months
median progression free survival (advanced solid tumors; 9 patients who continued treatment): exceeds 4.2 months
patients with absence of signs of disease progression (stable disease) after the first 6 weeks of treatment (advanced solid tumors; 10 of 22 patients, end of study ATX101-01, RECIST V1.1): 45%
dose dependence of disease stabilization effect (advanced solid tumors; dose levels 20, 30, 45 and 60 mg/m^2): no dose-dependent effects were observed
patients with progressive disease at end of treatment / discontinued due to disease progression (advanced solid tumors; of 9 patients in long-term follow-up): 5 patients
Outcome at end of treatment [6, 7]: no signs of disease progression; also recorded: Stable disease
tumor status after first 6 weeks of treatment [6, 7]: stabilized
Duration of treatment (months) [6, 7]: 4.1 months
Outcome at end of treatment [6, 8]: became progressive; also recorded: Progressive disease
tumor status after first 6 weeks of treatment [6, 8]: has been stabilized
Duration of treatment (months) [6, 8]: 3.5 months
